Results taken from patent US7674787B2, “Conformationally constrained Smac mimetics and the uses thereof” (The Regents of the University of Michigan, priority 2004, dated 2010).
Values joined by “and” are separate entries in the source; they are usually repeats but may differ in a detail not shown here. Equal values may be shown once. For some assays here: At least one structure is not confirmed: it was looked up by name or label, or the drawing left a doubt. Some entries share one result that the patent states for a list of compounds. Where a SMILES comes first, the peptide text is derived from it. [ ]: non-standard residue; d: D form. The star is where a group is joined. 6FAM = O=C1OC2(c3ccc(O)cc3Oc3cc(O)ccc32)c2cc(C(=O)*)ccc21; Abu = CC[C@H](N)C(=O)O

Sequences of proteins named here, by UniProt entry; tags and fusion partners are left off. Residues count along the entry.
UniProt P98170, 241-356: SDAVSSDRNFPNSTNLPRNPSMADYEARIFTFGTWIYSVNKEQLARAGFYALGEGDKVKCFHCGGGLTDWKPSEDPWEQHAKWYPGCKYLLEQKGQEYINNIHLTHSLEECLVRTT

Key:
XIAP BIR3 = XIAP BIR3 (Homo sapiens, UniProt P98170); details: Ki comparison
[1] = target: T1, human XIAP-BIR3 protein (residues 241-356) (Homo sapiens, UniProt P98170); test: Fluorescence polarization saturation binding of labeled Smac peptides; details: 5 nM labeled peptide titrated with 0 to 40 μM protein
T1 construct: The human XIAP-BIR3 protein (residues 241-356) with a His tag

| Compound | binding affinity more potent/better than natural Smac AVPI peptide (XIAP BIR3) | Kd [1] |
| --- | --- | --- |
| CC[C@H](N)C(=O)N[C@H]1CCC[C@H]2CC[C@@H](C(=O)NCc3ccccc3)N2C1=O [Compound 33] | at least 10 fold |  |
| CC[C@H](N)C(=O)N[C@@H](CCCNC(=N)N)C(=O)N1CCC[C@H]1C(=O)N[C@@H](Cc1ccccc1)C(=O)N[C@@H](CCCCNC(=O)c1ccc2c(c1)C1(OC2=O)c2ccc(O)cc2Oc2cc(O)ccc21)C(=O)O [SM5F, AbuRPFK-FAM] (H-[Abu]RPFK(6FAM)-OH; N-terminus and C-terminus assumed) |  | 18 nM and 17.9 nM |
